Like-named read-outs stand apart in the source and are kept apart here. No constants are given. Whether binding was seen depends on the method and setting. In cells and extracts the contact can be indirect. Some entries that bind do so weakly or less than the wild type. For some assays here: Sequences can lack the tags named with a protein.
Legend:
[1] = target: P2K1 (LecRK I.9) fused to a split-luciferase half, for LCI (Arabidopsis thaliana) (UniProt Q9LSR8); test: split reporter
[2] = target: T1, P2K1-nYFP (Arabidopsis thaliana) (UniProt Q9LSR8); test: split reporter
T1 sequence: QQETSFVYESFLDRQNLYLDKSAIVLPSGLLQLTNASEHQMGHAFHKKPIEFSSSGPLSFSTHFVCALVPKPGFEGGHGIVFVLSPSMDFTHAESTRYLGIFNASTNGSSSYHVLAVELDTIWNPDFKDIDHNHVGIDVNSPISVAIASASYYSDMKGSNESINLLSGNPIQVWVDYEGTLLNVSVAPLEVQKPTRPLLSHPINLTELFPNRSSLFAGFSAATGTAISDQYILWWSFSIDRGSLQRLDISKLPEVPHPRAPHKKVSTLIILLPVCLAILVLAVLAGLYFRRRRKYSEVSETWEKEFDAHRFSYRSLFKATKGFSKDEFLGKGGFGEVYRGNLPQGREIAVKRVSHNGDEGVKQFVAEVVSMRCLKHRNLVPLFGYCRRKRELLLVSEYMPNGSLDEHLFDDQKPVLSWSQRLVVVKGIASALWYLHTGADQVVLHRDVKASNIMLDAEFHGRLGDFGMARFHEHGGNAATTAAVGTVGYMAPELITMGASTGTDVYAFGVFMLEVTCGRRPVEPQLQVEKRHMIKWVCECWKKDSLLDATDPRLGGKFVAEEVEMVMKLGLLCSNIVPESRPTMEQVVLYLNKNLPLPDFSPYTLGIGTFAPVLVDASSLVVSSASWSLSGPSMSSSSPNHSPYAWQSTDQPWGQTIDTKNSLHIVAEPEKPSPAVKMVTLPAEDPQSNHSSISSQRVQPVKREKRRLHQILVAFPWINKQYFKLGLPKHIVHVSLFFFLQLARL

Protein sequences, listed by entry. Tags and fused reporters are not part of them.
UniProt Q9FIJ0: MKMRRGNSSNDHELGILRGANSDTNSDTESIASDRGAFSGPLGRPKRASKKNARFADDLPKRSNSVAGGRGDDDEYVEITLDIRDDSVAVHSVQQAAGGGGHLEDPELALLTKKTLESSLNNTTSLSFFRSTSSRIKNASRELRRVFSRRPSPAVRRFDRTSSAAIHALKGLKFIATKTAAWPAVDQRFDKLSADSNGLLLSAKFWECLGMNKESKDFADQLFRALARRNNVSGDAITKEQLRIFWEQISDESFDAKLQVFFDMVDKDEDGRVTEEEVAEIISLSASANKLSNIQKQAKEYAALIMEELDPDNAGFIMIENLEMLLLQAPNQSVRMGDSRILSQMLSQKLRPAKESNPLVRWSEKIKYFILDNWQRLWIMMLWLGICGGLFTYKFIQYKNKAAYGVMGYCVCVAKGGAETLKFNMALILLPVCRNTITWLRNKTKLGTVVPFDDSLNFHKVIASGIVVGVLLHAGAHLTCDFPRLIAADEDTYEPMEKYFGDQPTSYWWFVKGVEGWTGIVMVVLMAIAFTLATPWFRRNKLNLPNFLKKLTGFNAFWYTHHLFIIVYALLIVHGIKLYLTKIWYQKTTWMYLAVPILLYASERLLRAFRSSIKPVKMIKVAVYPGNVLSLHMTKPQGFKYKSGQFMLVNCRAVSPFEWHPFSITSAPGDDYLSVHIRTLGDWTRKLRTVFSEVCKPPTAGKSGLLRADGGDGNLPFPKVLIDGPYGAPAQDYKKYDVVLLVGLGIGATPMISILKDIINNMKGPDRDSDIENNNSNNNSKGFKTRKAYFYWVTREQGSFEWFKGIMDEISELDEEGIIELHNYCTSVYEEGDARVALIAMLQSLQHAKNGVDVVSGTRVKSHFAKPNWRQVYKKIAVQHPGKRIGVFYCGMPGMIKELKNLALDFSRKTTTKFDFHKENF

[3] = target: ILK5-cLUC (Arabidopsis thaliana) (UniProt Q93Z30); test: split reporter
[4] = target: ILK5^S192A, split-luciferase fusion for LCI (Arabidopsis thaliana) (UniProt Q93Z30); test: split reporter
[5] = target: ILK5^S192D, split-luciferase fusion for LCI (Arabidopsis thaliana) (UniProt Q93Z30); test: split reporter
[6] = target: T2, ILK5-cYFP (Arabidopsis thaliana) (UniProt Q93Z30); test: split reporter
T2 sequence: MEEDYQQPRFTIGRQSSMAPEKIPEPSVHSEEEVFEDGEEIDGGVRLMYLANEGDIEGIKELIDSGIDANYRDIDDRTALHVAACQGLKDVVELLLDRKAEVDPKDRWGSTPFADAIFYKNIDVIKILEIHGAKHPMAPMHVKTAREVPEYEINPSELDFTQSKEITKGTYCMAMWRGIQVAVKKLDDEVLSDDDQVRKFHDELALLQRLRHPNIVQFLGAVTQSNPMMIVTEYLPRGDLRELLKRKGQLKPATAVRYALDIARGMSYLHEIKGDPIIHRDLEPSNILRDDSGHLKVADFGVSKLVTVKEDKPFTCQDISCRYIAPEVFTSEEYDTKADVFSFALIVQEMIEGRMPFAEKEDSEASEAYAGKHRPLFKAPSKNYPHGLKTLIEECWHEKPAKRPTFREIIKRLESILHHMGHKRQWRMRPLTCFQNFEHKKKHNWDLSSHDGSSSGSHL

[7] = target: T1, P2K1-nYFP (Arabidopsis thaliana); test: split reporter; remark: listed apart in the source
[8] = target: T3, HA-tagged P2K1 (Arabidopsis thaliana) (UniProt Q9LSR8); test: co-IP
T3 sequence: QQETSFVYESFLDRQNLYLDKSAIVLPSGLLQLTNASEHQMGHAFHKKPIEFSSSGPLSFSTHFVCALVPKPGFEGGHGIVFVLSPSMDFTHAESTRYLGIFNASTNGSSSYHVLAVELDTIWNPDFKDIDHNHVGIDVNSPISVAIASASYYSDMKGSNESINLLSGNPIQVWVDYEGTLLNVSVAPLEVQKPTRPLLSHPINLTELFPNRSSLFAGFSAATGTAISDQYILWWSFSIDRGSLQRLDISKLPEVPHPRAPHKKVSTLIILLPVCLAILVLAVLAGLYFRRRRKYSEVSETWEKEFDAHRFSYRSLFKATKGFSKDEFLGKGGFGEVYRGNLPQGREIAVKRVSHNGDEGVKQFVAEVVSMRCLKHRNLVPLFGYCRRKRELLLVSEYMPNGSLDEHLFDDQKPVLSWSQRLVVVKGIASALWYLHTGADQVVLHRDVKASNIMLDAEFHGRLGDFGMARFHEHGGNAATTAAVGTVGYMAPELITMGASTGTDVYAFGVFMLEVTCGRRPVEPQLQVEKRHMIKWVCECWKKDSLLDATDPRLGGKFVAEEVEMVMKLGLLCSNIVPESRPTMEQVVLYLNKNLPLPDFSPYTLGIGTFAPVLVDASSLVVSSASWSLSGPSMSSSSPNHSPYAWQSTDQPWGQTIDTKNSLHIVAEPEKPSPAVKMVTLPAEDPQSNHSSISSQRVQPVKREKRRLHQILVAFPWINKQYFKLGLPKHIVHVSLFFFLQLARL

For “ILK5-cLUC (from UniProt Q93Z30 1-459) (enzyme)”, the binding [1] was “binds”.

“ILK5^S192D, split-luciferase fusion for LCI (from UniProt Q93Z30 1-459) (enzyme)” was tested, and the binding [1] was “binds”.

“RBOHD, split-YFP fusion for BiFC (from UniProt Q9FIJ0 1-921) (enzyme)” was tested, and the binding [2] was “binds”.

For “ILK5^S192A, split-luciferase fusion for LCI (from UniProt Q93Z30 1-459) (enzyme)”, the binding [1] was “binds”.

B1: MKK4-nLUC (enzyme, UniProt O80397 1-366)
chain: MRPIQSPPGVSVPVKSRPRRRPDLTLPLPQRDVSLAVPLPLPPTSGGSGGSSGSAPSSGGSASSTNTNSSIEAKNYSDLVRGNRIGSGAGGTVYKVIHRPSSRLYALKVIYGNHEETVRRQICREIEILRDVNHPNVVKCHEMFDQNGEIQVLLEFMDKGSLEGAHVWKEQQLADLSRQILSGLAYLHSRHIVHRDIKPSNLLINSAKNVKIADFGVSRILAQTMDPCNSSVGTIAYMSPERINTDLNQGKYDGYAGDIWSLGVSILEFYLGRFPFPVSRQGDWASLMCAICMSQPPEAPATASPEFRHFISCCLQREPGKRRSAMQLLQHPFILRASPSQNRSPQNLHQLLPPPRPLSSSSSPTT
With B1 the binding [3] was “binds”, the binding [4] was “binds” and the binding [5] was “binds”.

B2: MKK4-nYFP (enzyme, UniProt O80397 1-366)
chain: MRPIQSPPGVSVPVKSRPRRRPDLTLPLPQRDVSLAVPLPLPPTSGGSGGSSGSAPSSGGSASSTNTNSSIEAKNYSDLVRGNRIGSGAGGTVYKVIHRPSSRLYALKVIYGNHEETVRRQICREIEILRDVNHPNVVKCHEMFDQNGEIQVLLEFMDKGSLEGAHVWKEQQLADLSRQILSGLAYLHSRHIVHRDIKPSNLLINSAKNVKIADFGVSRILAQTMDPCNSSVGTIAYMSPERINTDLNQGKYDGYAGDIWSLGVSILEFYLGRFPFPVSRQGDWASLMCAICMSQPPEAPATASPEFRHFISCCLQREPGKRRSAMQLLQHPFILRASPSQNRSPQNLHQLLPPPRPLSSSSSPTT
In the case of B2, the binding [6] is reported as “binds”.

B3: ILK6-cYFP (enzyme, UniProt Q9XI87 1-438)
chain: MSSDSPAAGDGGEQAAAGTSVPSPSYDKQKEKARVSRTSLILWHAHQNDAAAVRKLLEEDPTLVHARDYDKRTPLHVASLHGWIDVVKCLLEFGADVNAQDRWKNTPLADAEGARKQKMIELLKSHGGLSYGQNGSHFEPKPVPPPIPKKCDWEIEPAELDFSNAAMIGKGSFGEIVKAYWRGTPVAVKRILPSLSDDRLVIQDFRHEVDLLVKLRHPNIVQFLGAVTERKPLMLITEYLRGGDLHQYLKEKGGLTPTTAVNFALDIARGMTYLHNEPNVIIHRDLKPRNVLLVNSSADHLKVGDFGLSKLIKVQNSHDVYKMTGETGSYRYMAPEVFKHRRYDKKVDVFSFAMILYEMLEGEPPFANHEPYEAAKHVSDGHRPTFRSKGCTPDLRELIVKCWDADMNQRPSFLDILKRLEKIKETLPSDHHWGLFTS
In the case of B3, the binding [7] is reported as “no binding”.

B4: ILK5-cYFP (enzyme, UniProt Q93Z30 1-459)
chain: MEEDYQQPRFTIGRQSSMAPEKIPEPSVHSEEEVFEDGEEIDGGVRLMYLANEGDIEGIKELIDSGIDANYRDIDDRTALHVAACQGLKDVVELLLDRKAEVDPKDRWGSTPFADAIFYKNIDVIKILEIHGAKHPMAPMHVKTAREVPEYEINPSELDFTQSKEITKGTYCMAMWRGIQVAVKKLDDEVLSDDDQVRKFHDELALLQRLRHPNIVQFLGAVTQSNPMMIVTEYLPRGDLRELLKRKGQLKPATAVRYALDIARGMSYLHEIKGDPIIHRDLEPSNILRDDSGHLKVADFGVSKLVTVKEDKPFTCQDISCRYIAPEVFTSEEYDTKADVFSFALIVQEMIEGRMPFAEKEDSEASEAYAGKHRPLFKAPSKNYPHGLKTLIEECWHEKPAKRPTFREIIKRLESILHHMGHKRQWRMRPLTCFQNFEHKKKHNWDLSSHDGSSSGSHL
With B4 the binding [7] was “binds”.

B5: Myc-tagged ILK5 (enzyme, UniProt Q93Z30 1-459)
chain: MEEDYQQPRFTIGRQSSMAPEKIPEPSVHSEEEVFEDGEEIDGGVRLMYLANEGDIEGIKELIDSGIDANYRDIDDRTALHVAACQGLKDVVELLLDRKAEVDPKDRWGSTPFADAIFYKNIDVIKILEIHGAKHPMAPMHVKTAREVPEYEINPSELDFTQSKEITKGTYCMAMWRGIQVAVKKLDDEVLSDDDQVRKFHDELALLQRLRHPNIVQFLGAVTQSNPMMIVTEYLPRGDLRELLKRKGQLKPATAVRYALDIARGMSYLHEIKGDPIIHRDLEPSNILRDDSGHLKVADFGVSKLVTVKEDKPFTCQDISCRYIAPEVFTSEEYDTKADVFSFALIVQEMIEGRMPFAEKEDSEASEAYAGKHRPLFKAPSKNYPHGLKTLIEECWHEKPAKRPTFREIIKRLESILHHMGHKRQWRMRPLTCFQNFEHKKKHNWDLSSHDGSSSGSHL
B5 was tested, and the binding [8] was “binds”.

B6: MKK5-nLUC (enzyme, UniProt Q8RXG3 1-348)
chain: MKPIQSPSGVASPMKNRLRKRPDLSLPLPHRDVALAVPLPLPPPSSSSSAPASSSAISTNISAAKSLSELERVNRIGSGAGGTVYKVIHTPTSRPFALKVIYGNHEDTVRRQICREIEILRSVDHPNVVKCHDMFDHNGEIQVLLEFMDQGSLEGAHIWQEQELADLSRQILSGLAYLHRRHIVHRDIKPSNLLINSAKNVKIADFGVSRILAQTMDPCNSSVGTIAYMSPERINTDLNHGRYDGYAGDVWSLGVSILEFYLGRFPFAVSRQGDWASLMCAICMSQPPEAPATASQEFRHFVSCCLQSDPPKRWSAQQLLQHPFILKATGGPNLRQMLPPPRPLPSAS
For B6, the binding [3] was “binds”, the binding [4] was “binds” and the binding [5] was “binds”.
